Test results: PubChem BioAssay AID662 (National Center for Advancing Translational Sciences (NCATS), 2007)
The list shows a part of the results. Shown are side measurements of this screen, not its main read-out; they come without a call. Most of these compounds were active or inconclusive in the main read-out, so they are no random draw. The note in brackets gives the kind of curve behind each potency; many fits are weak. Numbered stars: 1 amine (or outer) side, 2 acyl side, 3 side chain; on linkers, the order of the positions; unused ones are H or OH. Bridge positions count the residues as written; N and C are the ends. Square brackets hold non-standard residues; d marks the D form. Peptide text beside a SMILES is read from it. I, II: the chains in the order shown. Actinocin(9to1) = Cc1c2oc3c(C)ccc(C(=O)[*:1])c3nc-2c(C(=O)[*:2])c(N)c1=O; NMeV = CN[C@H](C(=O)O)C(C)C; Sar = CNCC(=O)O

Assay: Cell signaling CRE-BLA (Fsk stim)
Conditions: CHO CRE-bla reporter (cAMP response element driving beta-lactamase), forskolin EC10, beta-lactamase ratio; measured here: 460 nm blue channel
Method in brief: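 qHTS titration format; CRE-bla CHO reporter; stimulus EC10 NKH 477, a water-soluble forskolin. Read: CCF4 460/530 nm ratio. Potency expressed as AC50 for activators or inhibitors.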

SMILES | AC50
On1onc2c3cc(-c4ccccc4)nc3ccc21 | 12.6 µM [rising, partial curve]
O[C@H](CCCN1CCN(c2ncc(F)cn2)CC1)c1ccc(F)cc1 | 25.1 µM [falling, partial curve, poor fit]
CCSc1nc2cc(C(=O)OC)ccc2c(=O)n1CC | 12.6 µM [rising, partial curve]
Cn1c2c(c(=O)n(C)c1=O)C1c3ccccc3OCC1C(C)(C)O2 (centres undefined) | 12.6 µM [rising, partial curve]
CN1CCN(c2ncc3nc(-c4ccccc4)c(=O)n(Cc4ccc(F)cc4)c3n2)CC1 | 3.98 µM [rising, full curve]
O=C(CCS(=O)(=O)c1cc(Br)cc2c1N(C(=O)C1CC1)CC2)NCc1ccco1 | 0.126 µM [falling, full curve]
COc1cc(OC)c(NC(=O)Nc2ccc(OC)c(OC)c2)cc1Cl | 12.6 µM [rising, single point]
C=CCNC(=O)c1scc2c1CCCC2 | 0.00398 µM [falling, full curve, poor fit]
CCOC(=O)c1oc2ccccc2c1NC(=O)c1cccs1 | 2 µM [rising, full curve]
CC(=O)c1ccc(NS(=O)(=O)c2ccccc2)cc1 | 3.16 µM [falling, partial curve]
Cc1ccc(-c2nc3ncccn3c2Nc2ccc3c(c2)OCO3)o1 | 0.00398 µM [falling, full curve, poor fit]
COc1ccc(Oc2ncc3nc(-c4cccs4)c(=O)n(C)c3n2)cc1 | 6.31 µM [rising, partial curve]
Cc1c2oc3c(C)ccc(C(=O)N[C@@H]4C(=O)N[C@H](C(C)C)C(=O)N5CCC[C@H]5C(=O)N(C)CC(=O)N(C)[C@@H](C(C)C)C(=O)O[C@@H]4C)c3nc-2c(C(=O)N[C@@H]2C(=O)N[C@H](C(C)C)C(=O)N3CCC[C@H]3C(=O)N(C)CC(=O)N(C)[C@@H](C(C)C)C(=O)O[C@@H]2C)c(N)c1=O (I: T[dV]P[Sar][NMeV] / II: T[dV]P[Sar][NMeV]; ester I:1-I:C, II:1-II:C; linker I:N-II:N via Actinocin(9to1)) | 0.0398 µM [falling, full curve, poor fit]
COc1cc(C(=O)Nc2cc(C)ccn2)cc(OC)c1OC | 15.8 µM [rising, single point]
Cc1nn(-c2ccc(F)cc2)c2sc(C(=O)O)cc12 | 3.16 µM [rising, full curve]
Cc1nn(Cc2ccc(Cl)cc2)c(C)c1NC(=O)c1cc(-c2ccc3c(c2)OCO3)on1 | 10 µM [rising, partial curve]
COCCCn1c(=S)[nH]c2ccc(N3CCOCC3)cc2c1=O | 25.1 µM [rising, single point]
N#CCCn1c(=O)c(-c2cccc(C#N)c2)nc2cnc(N3CCOCC3)nc21 | 3.16 µM [rising, partial curve]
Nc1ncnc2c1nc(Sc1ccc(Cl)cc1)n2[C@@H]1O[C@H]2COP(=O)(O)O[C@@H]2[C@H]1O | 25.1 µM [rising, single point]
O=c1c(CCc2ccccc2)nc2cnc(Nc3ccccc3)nc2n1Cc1cccs1 | 1.58 µM [rising, partial curve]

SMILES | AC50
CCOc1cc(C2C(C(=O)c3ccco3)=C(O)C(=O)N2CCc2ccccc2)ccc1O (centres undefined) | 31.6 µM [falling, partial curve]
Cc1ccc(C)c(N2CCN(C(=O)CCCCn3c(=O)[nH]c4ccccc4c3=O)CC2)c1 | 12.6 µM [rising, partial curve]
COc1ccc(-c2cc(C(=O)OCC(=O)N(C)C)c3ccccc3n2)cc1 | 10 µM [rising, partial curve]
CN1[C@H](CC(=O)c2ccccc2)CCC[C@H]1C[C@@H](O)c1ccccc1 | 31.6 µM [falling, single point]
COc1ccccc1CNc1ncnc2ccc(-c3ccccc3OC)cc12 | 20 µM [falling, single point]
c1ccc(-n2nnc3c(N4CCOCC4)ncnc32)cc1 | 10 µM [rising, single point]
O=C1c2ccccc2C(=O)N1CCc1nc2ccccc2c(=O)n1CCCn1ccnc1 | 12.6 µM [rising, partial curve]
CC(C)(C)c1cc(C(=O)O)nn1-c1ccccc1 | 25.1 µM [falling, single point]
Cc1nnc(SCC(=O)Nc2ccc3c(c2)OCCO3)n1CC1CCCO1 (centres undefined) | 15.8 µM [falling, single point]
CC1CN(c2ncnc3c2oc2ccccc23)CC(C)O1 (centres undefined) | 7.94 µM [rising, partial curve]
COc1cc(C(=O)N(Cc2cc3cc(C)ccc3[nH]c2=O)CC2CCCO2)cc(OC)c1OC (centres undefined) | 0.794 µM [falling, partial curve]
CC1=CS/C(=C(/C#N)C(=O)N2CCOCC2)N1c1ccccc1 | 10 µM [rising, partial curve]
Cn1c(=O)cc(SCC(=O)N2CCCC2)c2cc(Cl)ccc21 | 10 µM [falling, partial curve, poor fit]
COc1cc(C(=O)N2CCN(c3cc(Cl)ccc3Cl)CC2)cc(OC)c1OC | 2.51 µM [rising, full curve]
CSc1nc(N2CCN(CCO)CC2)c2sc3nc(-c4ccco4)c4c(c3c2n1)CCC4 | 2 µM [rising, full curve]
COc1ccc(OC)c(NC(=O)CN2C(=O)C3(OCCCO3)c3ccccc32)c1 | 1.26 µM [falling, full curve, poor fit]
CC(C)CC1N=C2c3ccccc3N=C(SCc3cc(=O)n4ccccc4n3)N2C1=O (centres undefined) | 0.794 µM [rising, full curve]
CCn1c2ccccc2c2nc3cc(OC)c(OC)cc3nc21 | 7.94 µM [rising, partial curve]
CNc1nc(-c2ccc(N(C)C)cc2)nc2ccccc12 | 12.6 µM [rising, partial curve]

2 entries from above, set out differently.
SMILES	AC50
O=C(CCS(=O)(=O)c1cc(Br)cc2c1N(C(=O)C1CC1)CC2)NCc1ccco1	0.126 µM [falling, full curve]
COc1cc(OC)c(NC(=O)Nc2ccc(OC)c(OC)c2)cc1Cl	12.6 µM [rising, single point]
